Measured values reported in the supplement of paper PMC4604168 (melanoma cell lines).
Some of the results follow. Many values rest on one well or one pass, so single values are uncertain.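 Imaging used 1,536-well plates; nuclei positive for cleaved PARP by antibody were divided by total DNA-stained nuclei to yield the apoptosis fraction. Doses for screening kept most cells viable, and cell lines differ markedly in resting and induced cleaved-PARP levels.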

Key:
Test in all cases: cleaved PARP positive nuclei fraction relative to DMSO control; melanoma cells; higher = more apoptosis
Conditions in all cases: library dose: low library concentration; 72 h
[1] = test system: 501Mel
[2] = test system: A101D
[3] = test system: A2058
[4] = test system: A375
[5] = test system: C32
[6] = test system: CBRC008 (line from a melanoma biopsy)
[7] = test system: CBRC014 (line from a melanoma biopsy)
[8] = test system: CBRC016 (line from a melanoma biopsy)
[9] = test system: CBRC017 (line from a melanoma biopsy)
[10] = test system: CBRC034 (line from a melanoma biopsy)
[11] = test system: COLO792
[12] = test system: COLO800
[13] = test system: COLO829
[14] = test system: G361
[15] = test system: IPC-298
[16] = test system: IST-MEL1
[17] = test system: LB2518-MEL
[18] = test system: LOXIMVI
[19] = test system: MEL-HO

Structure (SMILES) | cleaved PARP positive nuclei fraction [1] | cleaved PARP positive nuclei fraction [2] | cleaved PARP positive nuclei fraction [3] | cleaved PARP positive nuclei fraction [4] | cleaved PARP positive nuclei fraction [5] | cleaved PARP positive nuclei fraction [6] | cleaved PARP positive nuclei fraction [7] | cleaved PARP positive nuclei fraction [8] | cleaved PARP positive nuclei fraction [9] | cleaved PARP positive nuclei fraction [10] | cleaved PARP positive nuclei fraction [11] | cleaved PARP positive nuclei fraction [12] | cleaved PARP positive nuclei fraction [13] | cleaved PARP positive nuclei fraction [14] | cleaved PARP positive nuclei fraction [15] | cleaved PARP positive nuclei fraction [16] | cleaved PARP positive nuclei fraction [17] | cleaved PARP positive nuclei fraction [18] | cleaved PARP positive nuclei fraction [19]
COc1ccc(C2=N[C@@H](c3ccc(Cl)cc3)[C@@H](c3ccc(Cl)cc3)N2C(=O)N2CCNC(=O)C2)c(OC(C)C)c1 [Nutlin-3] + O=C(O)[C@@H]1[O][Sb](=[O])([O][Sb]2(=[O])[O][C@H]([C@H](O)CO)[C@H](O)[C@H](C(=O)O)[O]2)[O][C@H]([C@H](O)CO)[C@@H]1O [stibogluconate] (first compound 0.1 µM, partner dose 2 µM) | 95.1% | 121% | 114% | 120% | 79.9% | 115% | 86.6% | 23.5% | 109% | 20.4% | 95% | 91.6% | 74.5% | 138% | 149% | 62.8% | 107% | 75.5% | 200%
CC1(C)CCC(c2ccc(Cl)cc2)=C(CN2CCN(c3ccc(C(=O)NS(=O)(=O)c4ccc(N[C@H](CCN5CCOCC5)CSc5ccccc5)c(S(=O)(=O)C(F)(F)F)c4)cc3)CC2)C1 + Cn1c(Nc2ccc(C(F)(F)F)cc2)nc2cc(Oc3ccnc(-c4ncc(C(F)(F)F)[nH]4)c3)ccc21 [CHIR265] (first compound 0.4 µM, partner dose 0.08 µM) | 347% | 347% | 368% | 922% | 344% | 248% | 1590% | 842% | 560% | 154% | 2510% | 173% | 103% | 515% | 96.4% | 81.8% | 2970% | 804% | 166%
C[C@@H](N)c1ccc(C(=O)Nc2ccnc3[nH]ccc23)cc1 + OCc1c[nH]c2ccccc12 [Indole-3-carbinol] (first compound 0.4 µM, partner dose 0.8 µM) | 221% | 54.4% | 172% | 187% | 98.3% | 111% | 108% | 333% | 130% | 167% | 209% | 134% | 111% | 86.8% | 271% | 170% | 131% | 103% | 108%
C[C@@H](N)c1ccc(C(=O)Nc2ccnc3[nH]ccc23)cc1 + COc1ccc(C2=N[C@@H](c3ccc(Cl)cc3)[C@@H](c3ccc(Cl)cc3)N2C(=O)N2CCNC(=O)C2)c(OC(C)C)c1 [Nutlin-3] (first compound 0.4 µM, partner dose 0.1 µM) | 79.3% | 89% | 173% | 96.2% | 26200% | 83.8% | 99.5% | 133% | 84.3% | 93.5% | 291% | 99.3% | 57.7% | 73.9% | 252% | 129% | 282% | 58.1% | 52.8%
C[C@@H](N)c1ccc(C(=O)Nc2ccnc3[nH]ccc23)cc1 + COc1ccc(Cl)c(Nc2nc3ccccc3nc2NS(=O)(=O)c2cccc(NC(=O)C(C)(C)N)c2)c1 [XL147] (first compound 0.4 µM, partner dose 0.8 µM) | 67.6% | 102% | 47.5% | 125% | 84.2% | 89.8% | 197% | 113% | 186% | 84.8% | 149% | 85.6% | 74.2% | 151% | 87.4% | 150% | 85.4% | 182% | 87.3%
C[C@@H](N)c1ccc(C(=O)Nc2ccnc3[nH]ccc23)cc1 + CN1CCN(c2ccc3nc(-c4c(N)c5c(F)cccc5[nH]c4=O)[nH]c3c2)CC1 [Dovitinib] (first compound 0.4 µM, partner dose 0.1 µM) | 119% | 136% | 111% | 192% | 90.6% | 103% | 90.4% | 130% | 136% | 444% | 155% | 48.9% | 66.6% | 76.7% | 45.6% | 59.9% | 99.2% | 110% | 66.4%
CN(c1ncccc1CNc1nc(Nc2ccc3c(c2)CC(=O)N3)ncc1C(F)(F)F)S(C)(=O)=O + COc1ccc(Cl)c(Nc2nc3ccccc3nc2NS(=O)(=O)c2cccc(NC(=O)C(C)(C)N)c2)c1 [XL147] (first compound 0.08 µM, partner dose 0.8 µM) | 105% | 136% | 168% | 84.9% | 94.8% | 96% | 116% | 258% | 258% | 39.3% | 148% | 77.8% | 94.4% | 46.2% | 171% | 131% | 149% | 48.4% | 119%
CCCCCCCCc1ccc(CCC(N)(CO)CO)cc1 [fingolimod] + Clc1ccc(Nc2nnc(Cc3ccncc3)c3ccccc23)cc1 [vatalanib] (first compound 2 µM, partner dose 2 µM) | 294% | 158% | 60% | 500% | 76.9% | 51% | 137% | 70.9% | 86.1% | 44.7% | 130% | 50.6% | 89.5% | 117% | 43.1% | 87.9% | 142% | 502% | 137%

Taken from above.
In cleaved PARP positive nuclei fraction [14], C[C@@H](N)c1ccc(C(=O)Nc2ccnc3[nH]ccc23)cc1 + CN1CCN(c2ccc3nc(-c4c(N)c5c(F)cccc5[nH]c4=O)[nH]c3c2)CC1 [Dovitinib] (first compound 0.4 µM, partner dose 0.1 µM) is entered as 76.7%
In cleaved PARP positive nuclei fraction [4], CC1(C)CCC(c2ccc(Cl)cc2)=C(CN2CCN(c3ccc(C(=O)NS(=O)(=O)c4ccc(N[C@H](CCN5CCOCC5)CSc5ccccc5)c(S(=O)(=O)C(F)(F)F)c4)cc3)CC2)C1 + Cn1c(Nc2ccc(C(F)(F)F)cc2)nc2cc(Oc3ccnc(-c4ncc(C(F)(F)F)[nH]4)c3)ccc21 [CHIR265] (first compound 0.4 µM, partner dose 0.08 µM) is entered as 922%
